# Assay results as given in the supplement of paper PMC4604168 (melanoma cell lines).
# This is one part of the list. Many values rest on one well or one pass, so single values are uncertain.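 Cells were imaged in 1,536-well plates, and nuclei stained with an antibody against cleaved PARP were counted against all DNA-stained nuclei to give the apoptosis fraction. Screening doses were chosen to leave most cells alive, and resting and induced cleaved-PARP levels differ strongly between cell lines.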
# How the values were obtained:
# Assay in all cases: cleaved PARP positive nuclei fraction relative to DMSO control; melanoma cells; higher = more apoptosis
# Conditions in all cases: library dose: low library concentration; 72 h
# WM115 = tested on: WM115
# WM1716 = tested on: WM1716
# WM1745 = tested on: WM1745
# WM3526 = tested on: WM3526
# WM3619 = tested on: WM3619
# WM451Lu = tested on: WM451Lu
Structure (SMILES),cleaved PARP positive nuclei fraction (WM115) [%],cleaved PARP positive nuclei fraction (WM1716) [%],cleaved PARP positive nuclei fraction (WM1745) [%],cleaved PARP positive nuclei fraction (WM3526) [%],cleaved PARP positive nuclei fraction (WM3619) [%],cleaved PARP positive nuclei fraction (WM451Lu) [%]
"Cc1ccc(NC(=O)c2cccc(N(C)C)c2)cc1NC(=O)c1ccc(O)cc1 + COc1ccc(COc2ccc(Cc3cnc(N)nc3N)cc2OC)cc1 [GW2580] (first compound 2 µM, partner dose 1 µM)",38.1,79.5,117,34.5,68.1,57.2
"CO[C@@H]1[C@H](N(C)C(=O)c2ccccc2)C[C@H]2O[C@]1(C)n1c3ccccc3c3c4c(c5c6ccccc6n2c5c31)C(=O)NC4 [Midostaurin] + O=C(Nc1ccccc1)c1cc([N+](=O)[O-])ccc1Cl [GW9662] (first compound 0.08 µM, partner dose 2 µM)",75.4,211,114,154,89.8,132
"Clc1ccc(Nc2nnc(Cc3ccncc3)c3ccccc23)cc1 [vatalanib] + COc1cc(N2CCC(N3CCN(C)CC3)CC2)ccc1Nc1ncc(Cl)c(Nc2ccccc2S(=O)(=O)C(C)C)n1 [NVP-TAE684] (first compound 2 µM, partner dose 0.08 µM)",506,147,122,37.7,1490,112
"C=CCNC1=C2C[C@@H](C)C[C@H](OC)[C@H](O)[C@@H](C)/C=C(\C)[C@H](OC(N)=O)[C@@H](OC)/C=C\C=C(/C)C(=O)NC(=CC1=O)C2=O [Tanespimycin] + C=CCn1c(=O)c2cnc(Nc3ccc(N4CCN(C)CC4)cc3)nc2n1-c1cccc(C(C)(C)O)n1 [MK1775] (first compound 0.002 µM, partner dose 0.02 µM)",78.5,82.6,112,84.5,269,55.9
"C=CCn1c(=O)c2cnc(Nc3ccc(N4CCN(C)CC4)cc3)nc2n1-c1cccc(C(C)(C)O)n1 + O=C(O)c1ccc(-c2c[nH]c3ncc(-c4ccccc4)cc23)cc1C1CCCC1 [GSK650394] (first compound 0.02 µM, partner dose 0.16 µM)",177,219,120,70.5,214,83.7
"Cn1c(Nc2ccc(C(F)(F)F)cc2)nc2cc(Oc3ccnc(-c4ncc(C(F)(F)F)[nH]4)c3)ccc21 + COc1cc2ncnc(Nc3ccc(Oc4ccccc4)cc3)c2cc1OC [SrcI1] (first compound 0.08 µM, partner dose 2 µM)",385,141,184,150,128,267
"Cc1nc(Nc2ncc(C(=O)Nc3c(C)cccc3Cl)s2)cc(N2CCN(CCO)CC2)n1 [dasatanib] + Cc1ccc(NC(=O)c2cccc(N(C)C)c2)cc1NC(=O)c1ccc(O)cc1 [ZM336372] (first compound 0.004 µM, partner dose 2 µM)",47.7,177,126,112,92.4,63
"C=CCn1c(=O)c2cnc(Nc3ccc(N4CCN(C)CC4)cc3)nc2n1-c1cccc(C(C)(C)O)n1 + CC(C)(C)c1cnc(CSc2cnc(NC(=O)C3CCNCC3)s2)o1 [SNS-032] (first compound 0.02 µM, partner dose 0.01 µM)",112,117,119,89.4,124,25.6
"COCC[n+]1c2c(n(Cc3cnccn3)c1C)C(=O)c1ccccc1C2=O + C=CCn1c(=O)c2cnc(Nc3ccc(N4CCN(C)CC4)cc3)nc2n1-c1cccc(C(C)(C)O)n1 [MK1775] (first compound 0.0004 µM, partner dose 0.02 µM)",59.6,89.9,82.3,155,117,70.6
"C[C@]1(c2nc3c(C(N)=O)cccc3[nH]2)CCCN1 [Veliparib] + C=CCn1c(=O)c2cnc(Nc3ccc(N4CCN(C)CC4)cc3)nc2n1-c1cccc(C(C)(C)O)n1 [MK1775] (first compound 1.4 µM, partner dose 0.02 µM)",177,187,119,73.4,147,115
"CC1(C)NC(=O)N(c2ccc([N+](=O)[O-])c(C(F)(F)F)c2)C1=O [nilutamide] + NC(=O)Nc1cc(-c2cccc(F)c2)sc1C(=O)N[C@H]1CCCNC1 [AZD7762] (first compound 1 µM, partner dose 0.02 µM)",84.4,42.7,80,103,123,179
"Cc1ccc(NC(=O)c2cccc(N(C)C)c2)cc1NC(=O)c1ccc(O)cc1 + C[C@@H]1CCN(C(=O)CC#N)C[C@@H]1N(C)c1ncnc2[nH]ccc12 [CP690550] (first compound 2 µM, partner dose 1 µM)",100,65.9,103,52.7,96.3,279
"OCCn1cc(-c2cnc3nnn(Cc4ccc5ncccc5c4)c3n2)cn1 + COc1cc2ncnc(Nc3ccc(Oc4ccccc4)cc3)c2cc1OC [SrcI1] (first compound 1 µM, partner dose 2 µM)",121,90.2,107,62.9,73.1,94
"NC(=O)Nc1cc(-c2cccc(F)c2)sc1C(=O)N[C@H]1CCCNC1 + Cn1cncc1[C@@](N)(c1ccc(Cl)cc1)c1ccc2c(c1)c(-c1cccc(Cl)c1)cc(=O)n2C [tipifarnib] (first compound 0.02 µM, partner dose 0.01 µM)",116,89.1,95,431,231,130
"CO[C@@H]1[C@H](N(C)C(=O)c2ccccc2)C[C@H]2O[C@]1(C)n1c3ccccc3c3c4c(c5c6ccccc6n2c5c31)C(=O)NC4 [Midostaurin] + COc1cc2ncnc(Nc3ccc(Oc4ccccc4)cc3)c2cc1OC [SrcI1] (first compound 0.08 µM, partner dose 2 µM)",355,148,150,69.3,92.5,93.3
"Cc1cc(N2CCOCC2)cc2[nH]c(-c3c(NC[C@@H](O)c4cccc(Cl)c4)cc[nH]c3=O)nc12 + COc1cc2ncnc(Nc3ccc(Oc4ccccc4)cc3)c2cc1OC [SrcI1] (first compound 0.2 µM, partner dose 2 µM)",61.7,118,127,80,88.5,34
"C[C@]1(c2nc3c(C(N)=O)cccc3[nH]2)CCCN1 [Veliparib] + CC1(C)NC(=O)N(c2ccc([N+](=O)[O-])c(C(F)(F)F)c2)C1=O [nilutamide] (first compound 1.4 µM, partner dose 1 µM)",111,96.8,103,84.8,96.8,182
"O=C(CCCCCCC(=O)Nc1ccccc1)NO [vorinostat] + O=c1cc(-c2cccc3c2Sc2ccccc2S3)oc(N2CCOCC2)c1 [KU55933] (first compound 0.08 µM, partner dose 1 µM)",122,41.8,87.9,158,82.7,48.4
"O=C(Nc1cccc(Cl)c1)Nc1ncc(CCNc2ncnc3ccsc23)s1 + CN(NC(=O)CC(=O)NN(C)C(=S)c1ccccc1)C(=S)c1ccccc1 [STA4783] (first compound 0.0008 µM, partner dose 0.006 µM)",389,125,174,125,205,142
"Cn1nnc2c(C(N)=O)ncn2c1=O [temozolomide] + COc1cc(N2CCC(N3CCN(C)CC3)CC2)ccc1Nc1ncc(Cl)c(Nc2ccccc2S(=O)(=O)C(C)C)n1 [NVP-TAE684] (first compound 2 µM, partner dose 0.08 µM)",215,107,119,62.8,79.9,121
"C=CCNC1=C2C[C@@H](C)C[C@H](OC)[C@H](O)[C@@H](C)/C=C(\C)[C@H](OC(N)=O)[C@@H](OC)/C=C\C=C(/C)C(=O)NC(=CC1=O)C2=O [Tanespimycin] + Cn1cc(/C=C2\C(=O)Nc3cccnc32)c2ccccc21 [GW441756] (first compound 0.002 µM, partner dose 0.4 µM)",158,38.9,102,114,120,40.8
"O=C(Nc1cccc(Cl)c1)Nc1ncc(CCNc2ncnc3ccsc23)s1 + CC(C)CCN1c2nc(Nc3cc(F)c(O)c(F)c3)ncc2N(C)C(=O)C1C [BID1870] (first compound 0.0008 µM, partner dose 0.2 µM)",202,101,91,73.1,90.5,63.4
"CC1(C)NC(=O)N(c2ccc([N+](=O)[O-])c(C(F)(F)F)c2)C1=O [nilutamide] + O=C1NC(=O)/C(=C/c2ccc(-c3ccc(F)cc3O)o2)S1 [AS252424] (first compound 1 µM, partner dose 1 µM)",142,51,109,60.1,83.9,96

# 2 successive records from above, quoted:
Structure (SMILES),cleaved PARP positive nuclei fraction (WM115) [%],cleaved PARP positive nuclei fraction (WM1716) [%],cleaved PARP positive nuclei fraction (WM1745) [%],cleaved PARP positive nuclei fraction (WM3526) [%],cleaved PARP positive nuclei fraction (WM3619) [%],cleaved PARP positive nuclei fraction (WM451Lu) [%]
"Cc1ccc(NC(=O)c2cccc(N(C)C)c2)cc1NC(=O)c1ccc(O)cc1 + C[C@@H]1CCN(C(=O)CC#N)C[C@@H]1N(C)c1ncnc2[nH]ccc12 [CP690550] (first compound 2 µM, partner dose 1 µM)",100,65.9,103,52.7,96.3,279
"OCCn1cc(-c2cnc3nnn(Cc4ccc5ncccc5c4)c3n2)cn1 + COc1cc2ncnc(Nc3ccc(Oc4ccccc4)cc3)c2cc1OC [SrcI1] (first compound 1 µM, partner dose 2 µM)",121,90.2,107,62.9,73.1,94
